These are yes or no findings as the source states them, for the method shown. Some binding calls cover weakened binding; strength is not graded here.
Key:
[1] = target: human sodium/proton exchanger 1 (NHE1) (human) (UniProt P19634); assay: cryo-EM structure; NHE1-CHP1^Na/7.5: co-expressed and co-purified complex in MSP1D1/POPC nanodiscs, 150 mM NaCl, pH 7.5; 3.3-Å map focused on the NHE1 TMD; CHP1 not resolved; both purified
[2] = target: human sodium/proton exchanger 1 (NHE1) (human) (UniProt P19634); assay: cryo-EM structure; NHE1-CHP1^Na/6.5: co-expressed and co-purified complex in MSP1D1/POPC nanodiscs, 150 mM NaCl, pH 6.5; inward-facing; 3.4-Å map (TMD), 4.0-Å map of the NHE1 dimer with one CHP1; both purified
[3] = target: human sodium/proton exchanger 1 (NHE1) (human) (UniProt P19634); assay: cryo-EM structure; NHE1-CHP1^K/cariporide: co-expressed and co-purified complex in MSP1D1/POPC nanodiscs, 100 mM KCl, pH 7.5, 10 μM cariporide; outward-facing; 3.5-Å map; both purified

Sequences of proteins named here, by UniProt entry; tags and fusion partners are left off.
UniProt P19634: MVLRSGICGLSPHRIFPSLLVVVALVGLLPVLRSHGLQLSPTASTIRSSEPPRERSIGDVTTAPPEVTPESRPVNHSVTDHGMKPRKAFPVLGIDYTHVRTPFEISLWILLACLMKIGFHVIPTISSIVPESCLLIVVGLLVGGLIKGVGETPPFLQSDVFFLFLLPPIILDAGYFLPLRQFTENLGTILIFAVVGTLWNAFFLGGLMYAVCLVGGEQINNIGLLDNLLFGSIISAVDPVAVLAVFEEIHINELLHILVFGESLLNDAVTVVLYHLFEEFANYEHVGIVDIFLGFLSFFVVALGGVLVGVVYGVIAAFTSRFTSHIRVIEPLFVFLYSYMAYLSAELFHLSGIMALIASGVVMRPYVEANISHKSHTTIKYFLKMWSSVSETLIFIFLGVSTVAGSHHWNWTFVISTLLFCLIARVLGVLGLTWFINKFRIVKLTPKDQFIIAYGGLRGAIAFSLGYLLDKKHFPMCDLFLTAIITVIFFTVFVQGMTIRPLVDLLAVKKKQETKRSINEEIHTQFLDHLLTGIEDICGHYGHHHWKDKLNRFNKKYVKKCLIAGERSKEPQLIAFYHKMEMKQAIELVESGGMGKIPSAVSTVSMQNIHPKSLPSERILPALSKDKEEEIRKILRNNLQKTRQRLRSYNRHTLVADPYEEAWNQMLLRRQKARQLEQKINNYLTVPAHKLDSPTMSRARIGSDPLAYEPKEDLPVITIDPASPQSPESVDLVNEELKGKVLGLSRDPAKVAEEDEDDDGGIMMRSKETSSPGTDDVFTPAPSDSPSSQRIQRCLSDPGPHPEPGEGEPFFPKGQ

Measured: binding

B1: human calcineurin B-homologous protein 1 (CHP1) (protein, UniProt Q99653 1-195)
chain: MGSRASTLLRDEELEEIKKETGFSHSQITRLYSRFTSLDKGENGTLSREDFQRIPELAINPLGDRIINAFFPEGEDQVNFRGFMRTLAHFRPIEDNEKSKDVNGPEPLNSRSNKLHFAFRLYDLDKDEKISRDELLQVLRMMVGVNISDEQLGSIADRTIQEADQDGDSAISFTEFVKVLEKVDVEQKMSIRFLH
binds: all assays above

Reference: PMC8190280
